This passage reports Absorbance results from article PMC6010098, “Synthesis, antitumour and antioxidant activities of novel α,β-unsaturated ketones and related heterocyclic analogues: EGFR inhibition and molecular modelling study” (Journal of Enzyme Inhibition and Medicinal Chemistry, 2018).

The data set in a line: ABTS radical cation scavenging (antioxidant) assay. Conditions: ABTS solution at 734 nm after 20 µl of 1 mg/ml test sample (L-ascorbic acid 2 mM); control of ABTS 0.512.
As to `CC(=O)C=Cc1ccc(OC2CCCC2)cc1` [4a, 4-(4-(Cyclopentyloxy)phenyl)but-3-en-2-one], the Absorbance came to 0.245. Under `Cc1ccc(C(=O)C=Cc2ccc(OC3CCCC3)cc2)cc1` [4b, 3-(4-(Cyclopentyloxy)phenyl)-1-(4-methylphenyl)prop-2-en-1-one] stands 0.243.

As to `O=C1CCCC1=Cc1ccc(OC2CCCC2)cc1` [5a, 2-(4-(Cyclopentyloxy)benzylidene)cyclopentanone], the Absorbance was found to be 0.281. Molecule `O=C1CCCCC1=Cc1ccc(OC2CCCC2)cc1` [5b, 2-(4-(Cyclopentyloxy)benzylidene)cyclohexanone] came in with an Absorbance of 0.249.

Take `O=C1CCCCCC1=Cc1ccc(OC2CCCC2)cc1` [5c, 2-(4-(Cyclopentyloxy)benzylidene)cycloheptanone]: the Absorbance is listed as 0.251.

Molecule `CN1CCC(=O)C(=Cc2ccc(OC3CCCC3)cc2)C1` [6a, 3-(4-(Cyclopentyloxy)benzylidene)-1-methylpiperidin-4-one] displayed an Absorbance of 0.234. Under `CCN1CCC(=O)C(=Cc2ccc(OC3CCCC3)cc2)C1` [6b, 3-(4-(Cyclopentyloxy)benzylidene)-1-ethylpiperidin-4-one] stands 0.229. In turn, `Cc1ccc(C2=NNC(c3ccc(OC4CCCC4)cc3)C2)cc1` (stereo not shown) [8a, 5-(4-(Cyclopentyloxy)phenyl)-3-(4-methylphenyl)-4,5-dihydro-1H-pyrazole] yielded an Absorbance of 0.240. Next, `Cc1ccc(C2=NN(c3ccccc3)C(c3ccc(OC4CCCC4)cc3)C2)cc1` (stereo not shown) [8b, 5-(4-(Cyclopentyloxy)phenyl)-1-phenyl-3-(4-methylphenyl)-4,5-dihydro-1H-pyrazole]: 0.058. With `O=C(O)c1cc(C=Cc2ccc(OC3CCCC3)cc2)nc2ccc(Br)cc12` [12a, 6-Bromo-2-(4-(cyclopentyloxy)styryl)quinoline-4-carboxylicacid], the Absorbance amounted to 0.275. Next, `O=C(O)c1cc(C=Cc2ccc(OC3CCCC3)cc2)nc2ccc(F)cc12` [12b, 2-(4-(Cyclopentyloxy)styryl)-6-fluoroquinoline-4-carboxylicacid]: 0.256; `O=C1O[C@H]([C@@H](O)CO)C(O)=C1O` [Ascorbic acid, L-Ascorbic acid, reference compound]: 0.051; `CCOC(=O)C1=C(C)OC(N)=C(C#N)C1c1ccc(OC2CCCC2)cc1` (stereo not shown) [compound 7, ethyl 6-amino-5-cyano-4-(4-(cyclopentyloxy)phenyl)-2-methyl-4H-pyran-3-carboxylate]: 0.124. Regarding `Cc1ccc(C2=NOC(c3ccc(OC4CCCC4)cc3)C2)cc1` (stereo not shown) [compound 9, 5-(4-(cyclopentyloxy)phenyl)-3-(4-methylphenyl)-4,5-dihydroisoxazole], the Absorbance is reported as 0.204. `Cc1ccc(-c2cc(-c3ccc(OC4CCCC4)cc3)c(C#N)c(=O)[nH]2)cc1` [compound 10, 4-(4-(cyclopentyloxy)phenyl)-2-oxo-6-(4-methylphenyl)-1,2-dihydropyridine-3-carbonitrile] registered an Absorbance of 0.270. Under `Cc1ccc(-c2cc(-c3ccc(OC4CCCC4)cc3)c(C#N)c(N)n2)cc1` [compound 11, 2-amino-4-(4-(cyclopentyloxy)phenyl)-6-(4-methylphenyl)nicotinonitrile] stands 0.279.
